In the assay the target is T1, Rad26 (wild type) (S. cerevisiae, UniProt P40352 1-1085).
T1 construct: Rad26, S. cerevisiae ortholog of human CSB, Swi2/Snf2 family ATPase; also called Rad26(WT); yeast ortholog of CSB; source: E. coli Rosetta 2(DE3), purified (Ni-NTA agarose, Hi-Trap Heparin HP, Superdex 200)
T1 sequence: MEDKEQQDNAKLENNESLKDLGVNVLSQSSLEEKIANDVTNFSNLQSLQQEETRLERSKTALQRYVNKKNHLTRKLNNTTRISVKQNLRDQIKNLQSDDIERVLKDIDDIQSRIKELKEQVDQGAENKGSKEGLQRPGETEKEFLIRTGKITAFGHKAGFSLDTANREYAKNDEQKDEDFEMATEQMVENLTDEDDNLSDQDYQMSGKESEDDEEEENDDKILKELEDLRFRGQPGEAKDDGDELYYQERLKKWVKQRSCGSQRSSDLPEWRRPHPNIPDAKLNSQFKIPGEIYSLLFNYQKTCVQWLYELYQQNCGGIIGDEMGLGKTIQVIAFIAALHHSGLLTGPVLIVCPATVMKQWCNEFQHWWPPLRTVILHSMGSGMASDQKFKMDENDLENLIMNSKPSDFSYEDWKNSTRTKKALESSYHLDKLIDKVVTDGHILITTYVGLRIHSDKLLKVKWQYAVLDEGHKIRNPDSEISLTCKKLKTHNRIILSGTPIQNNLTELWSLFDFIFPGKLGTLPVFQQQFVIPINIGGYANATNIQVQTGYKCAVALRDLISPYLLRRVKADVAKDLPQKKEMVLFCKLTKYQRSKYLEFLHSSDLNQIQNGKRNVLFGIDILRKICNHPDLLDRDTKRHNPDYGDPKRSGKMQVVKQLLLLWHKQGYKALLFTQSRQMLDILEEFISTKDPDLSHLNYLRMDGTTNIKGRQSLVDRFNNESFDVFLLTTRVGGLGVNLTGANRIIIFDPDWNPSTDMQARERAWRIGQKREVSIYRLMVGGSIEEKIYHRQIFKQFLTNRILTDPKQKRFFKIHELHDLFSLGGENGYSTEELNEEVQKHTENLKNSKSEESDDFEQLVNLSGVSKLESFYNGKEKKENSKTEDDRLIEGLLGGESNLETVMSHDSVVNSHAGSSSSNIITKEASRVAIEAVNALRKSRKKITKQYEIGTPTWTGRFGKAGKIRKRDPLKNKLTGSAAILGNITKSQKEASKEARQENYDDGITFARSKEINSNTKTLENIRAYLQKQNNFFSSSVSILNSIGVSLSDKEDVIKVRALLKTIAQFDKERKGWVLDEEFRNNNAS
Kind of assay: cryo-EM structure; Pol II(CPD)-Rad26-Elf1 (Closed state): Elf1 incubated with the Pol II(CPD)-Rad26 complex; 1 uM Pol II, 2 uM Rad26, 1.1 uM scaffold, 5 uM Elf1; 3.1 A; both purified.

These are yes or no findings as the source states them, for the method shown.

B1: Elf1 (wild type) (protein, UniProt P36053 1-145)
chain: MGKRKKSTRKPTKRLVQKLDTKFNCLFCNHEKSVSCTLDKKNSIGTLSCKICGQSFQTRINSLSQPVDVYSDWFDAVEEVNSGRGSDTDDGDEGSDSDYESDSEQDAKTQNDGEIDSDEEEVDSDEERIGQVKRGRGALVDSDDE
In the case of B1, the binding result is given as “no binding”.

The record behind these values is PMC10801861, “Elf1 promotes Rad26’s interaction with lesion-arrested Pol II for transcription-coupled repair” (Proceedings of the National Academy of Sciences of the …, 2024).
